Reference: PubChem BioAssay (NCATS)
The inconclusive results got no clear call from the source; some entries with a clear call stand among them for comparison. For some of these results: Potencies beside an inconclusive call are fits to weak or partial responses and may not hold up. For some of these results: A note “side channel” means that the fit belongs to a control or component signal, not to the main read-out. Activity calls are given as the source filed them. Unless noted, the call rests on the fitted dose curve; in most records, active means well fitted curve in the direction sought with a large enough effect; inconclusive means small, poorly fitted or top-dose-only effect, or another doubt; inactive means no such curve, though single readings can be large; an effect the other way counts as inactive or inconclusive.

Chains of the proteins cited; added tags and fusions are not shown. Lines headed by an entry give the natural chain unless they say otherwise; changes in a name come on top.
UniProt P51449: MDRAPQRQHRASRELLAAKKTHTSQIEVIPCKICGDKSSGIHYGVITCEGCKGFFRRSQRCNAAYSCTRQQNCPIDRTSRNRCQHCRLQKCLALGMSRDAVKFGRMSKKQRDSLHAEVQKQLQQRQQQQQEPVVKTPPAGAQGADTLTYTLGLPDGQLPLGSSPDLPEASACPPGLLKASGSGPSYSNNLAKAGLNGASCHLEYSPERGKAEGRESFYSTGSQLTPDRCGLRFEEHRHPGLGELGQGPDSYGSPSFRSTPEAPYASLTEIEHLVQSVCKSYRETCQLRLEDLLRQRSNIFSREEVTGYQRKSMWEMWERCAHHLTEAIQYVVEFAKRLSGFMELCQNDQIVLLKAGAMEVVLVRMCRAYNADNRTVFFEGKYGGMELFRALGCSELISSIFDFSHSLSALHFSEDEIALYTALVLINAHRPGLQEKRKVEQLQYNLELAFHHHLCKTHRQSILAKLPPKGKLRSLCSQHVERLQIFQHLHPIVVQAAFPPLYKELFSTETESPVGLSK
UniProt P08684, whole entry, looked up: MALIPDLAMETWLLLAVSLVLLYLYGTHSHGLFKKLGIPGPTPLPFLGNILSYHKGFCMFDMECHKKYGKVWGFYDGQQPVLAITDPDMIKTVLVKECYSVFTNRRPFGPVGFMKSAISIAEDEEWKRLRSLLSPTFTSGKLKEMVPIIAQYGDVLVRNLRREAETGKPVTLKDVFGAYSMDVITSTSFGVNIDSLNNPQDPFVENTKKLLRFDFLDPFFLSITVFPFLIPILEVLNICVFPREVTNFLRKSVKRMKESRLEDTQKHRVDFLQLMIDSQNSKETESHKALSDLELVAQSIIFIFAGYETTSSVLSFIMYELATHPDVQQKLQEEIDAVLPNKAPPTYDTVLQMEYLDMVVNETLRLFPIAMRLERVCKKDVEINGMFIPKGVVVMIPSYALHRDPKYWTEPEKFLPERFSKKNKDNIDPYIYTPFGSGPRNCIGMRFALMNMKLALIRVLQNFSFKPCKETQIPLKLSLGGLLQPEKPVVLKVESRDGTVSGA
UniProt P03372, whole entry, looked up: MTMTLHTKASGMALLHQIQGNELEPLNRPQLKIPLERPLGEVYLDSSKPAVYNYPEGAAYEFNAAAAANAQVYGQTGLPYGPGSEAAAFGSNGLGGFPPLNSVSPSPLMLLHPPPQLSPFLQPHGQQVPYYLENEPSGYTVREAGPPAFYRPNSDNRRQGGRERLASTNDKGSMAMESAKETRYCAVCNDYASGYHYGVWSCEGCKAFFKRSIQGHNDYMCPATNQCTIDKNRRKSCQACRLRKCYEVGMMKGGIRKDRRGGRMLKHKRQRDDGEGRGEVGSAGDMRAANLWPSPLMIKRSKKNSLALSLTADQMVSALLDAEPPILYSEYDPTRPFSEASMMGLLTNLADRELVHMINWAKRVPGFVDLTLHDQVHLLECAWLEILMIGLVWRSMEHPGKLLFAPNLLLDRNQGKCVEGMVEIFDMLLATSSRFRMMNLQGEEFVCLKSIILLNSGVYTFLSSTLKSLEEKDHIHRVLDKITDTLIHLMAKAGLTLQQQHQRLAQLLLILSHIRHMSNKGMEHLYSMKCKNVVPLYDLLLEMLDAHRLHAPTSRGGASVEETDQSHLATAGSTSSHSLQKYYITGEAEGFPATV
UniProt P11473: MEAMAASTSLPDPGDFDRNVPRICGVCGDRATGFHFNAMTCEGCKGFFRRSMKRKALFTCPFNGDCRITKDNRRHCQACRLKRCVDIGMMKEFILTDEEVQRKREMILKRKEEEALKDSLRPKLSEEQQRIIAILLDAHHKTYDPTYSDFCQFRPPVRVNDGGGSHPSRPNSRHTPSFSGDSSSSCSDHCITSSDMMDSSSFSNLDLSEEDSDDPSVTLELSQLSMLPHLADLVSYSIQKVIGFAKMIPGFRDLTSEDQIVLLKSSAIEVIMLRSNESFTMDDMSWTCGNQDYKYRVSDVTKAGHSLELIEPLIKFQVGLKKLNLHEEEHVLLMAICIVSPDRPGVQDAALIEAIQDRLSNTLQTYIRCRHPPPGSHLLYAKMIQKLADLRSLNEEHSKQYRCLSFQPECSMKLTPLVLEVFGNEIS
UniProt P19793: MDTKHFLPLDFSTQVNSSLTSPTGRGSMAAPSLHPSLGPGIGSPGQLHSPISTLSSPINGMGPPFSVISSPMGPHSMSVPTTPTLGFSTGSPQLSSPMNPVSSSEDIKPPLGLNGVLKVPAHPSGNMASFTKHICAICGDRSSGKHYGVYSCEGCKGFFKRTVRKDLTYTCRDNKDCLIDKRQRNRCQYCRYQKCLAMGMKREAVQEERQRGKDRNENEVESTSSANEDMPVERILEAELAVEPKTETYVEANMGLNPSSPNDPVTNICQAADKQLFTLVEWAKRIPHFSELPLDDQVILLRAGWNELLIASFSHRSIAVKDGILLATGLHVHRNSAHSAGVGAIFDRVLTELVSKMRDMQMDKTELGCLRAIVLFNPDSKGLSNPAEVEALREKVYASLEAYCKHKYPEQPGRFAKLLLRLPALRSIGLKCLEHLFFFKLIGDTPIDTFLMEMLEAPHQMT
UniProt P01375, whole entry, looked up: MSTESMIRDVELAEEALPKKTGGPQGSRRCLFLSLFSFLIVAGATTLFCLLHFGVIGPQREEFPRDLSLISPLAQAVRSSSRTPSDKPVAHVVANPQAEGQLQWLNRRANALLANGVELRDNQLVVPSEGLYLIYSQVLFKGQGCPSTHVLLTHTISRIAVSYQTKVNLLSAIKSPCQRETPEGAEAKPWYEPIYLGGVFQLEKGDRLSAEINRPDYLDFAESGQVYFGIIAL

Tests used:
[1] = qHTS assay to identify small molecules that stimulate interleukin-8 (IL-8) secretion (AID 651758; active means well fitted activation curve with a large enough effect in the signal ratio; inconclusive means small, poorly fitted or top-dose-only effect, or effect the other way, or a change in a side signal; the % refers to the signal ratio; further: potency means the concentration at half of the fitted maximal effect; on activation: 0% is about no effect); conditions: HTRF ratio (665/615); activation: at 92.2 µM (top of the series)
Procedure, shortened: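 THP-1 cells (2000/well) exposed to compound 16 h at 37 C; secreted IL-8 then detected by HTRF with cryptate- and XL665-labelled anti-IL-8 antibody pair after 1-3 h at room temperature.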

[2] = target: Nuclear receptor ROR-gamma (Homo sapiens) (UniProt P51449); experiment: qHTS assay for small molecule antagonists of the retinoid-related orphan receptor gamma (ROR-gamma) signaling pathway (AID 651802); further: potency means the concentration at half of the fitted maximal effect; nearly all actives have a fitted effect of over 60% in size
Procedure, shortened: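 Antagonism is scored as a fall in luminescence from a RORE-luciferase reporter in CHO cells expressing ROR under a TET-inducible promoter, measured 16hr after doxycycline induction in the presence of compound.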

[3] = qHTS assay for small molecule antagonists of the retinoid-related orphan receptor gamma (ROR-gamma) signaling pathway - cell viability counter screen (AID 720652; active means well fitted curve in the direction sought with a large enough effect in the repeat runs; inconclusive means weak or mixed curves; inactive means no such curve, though single readings can be large; an effect the other way counts as inactive or inconclusive;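 further: potency means the concentration at half of the fitted maximal effect; compound exposure lasted 16 hr before ATP read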)
Procedure, shortened: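 Cytotoxicity is quantified via intracellular ATP (CellTiter-Glo luminescence) in doxycycline-induced CHO ROR response element-luciferase reporter cells treated with compound for 16 hr at 37 C, 5% CO2.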

[4] = Cell Viability - Jurkat (AID 426;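 active means dose-dependent loss of cell ATP signal giving a full or clear fitted curve, ranked by lower potency value; inconclusive means weak partial curve or response only at the top dose; inactive means no loss of viability signal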;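 further: potency means the concentration at half of the fitted maximal effect; cells exposed to compound for 40 hours at 37 °C before ATP read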); conditions: qHTS
Procedure, shortened: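 Seed 5000 Jurkat E6-1 cells/well; add compound; incubate 40 hr at 37 °C; add CellTiter-Glo; wait 20 min at room temperature; read luminescence. Fit concentration-response with Hill equation for AC50.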

[5] = target: Cytochrome P450 3A4 (Homo sapiens) (UniProt P08684); experiment: qHTS Assay for Inhibitors and Substrates of Cytochrome P450 3A4 (AID 884); further: on the % scale 0 is the no-effect control and ±100 the full control effect; nearly all actives have a fitted effect of over 50% in size
Procedure, shortened: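 20 nM human CYP3A4 with 25 uM Luciferin-PPXE (at KM) in 200 mM KPO4, preincubated 10 min with compound; NADPH regeneration started a 60 min RT reaction. Luciferin detected by luminescence, normalized to 57 uM ketoconazole as full inhibition.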

[6] = Cell Viability - LYMP2-005 (AID 967); further: potency means the concentration at half of the fitted maximal effect;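 on activity change, negative = viability loss: plate controls were DMSO only for no effect and 92 µM tetraoctylammonium bromide control for full effect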
Procedure, shortened: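 qHTS viability screen in LYMP2-005 cells: 24 h at 37 C with compound, ATP luminescence via CellTiter-Glo, AC50 from Hill curves.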

[7] = Cell Viability - LYMP2-016 (AID 984); conditions: LYMP2-016 lymphoblastoid cell viability, qHTS; activity change, negative = cytotoxicity: at 92.2 µM (top of the series);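 further: cells exposed to compound for 24 hours at 37 °C; on the % scale 0 is the no-effect control and ±100 the full control effect; nearly all actives have a fitted effect of over 55% in size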
Procedure, shortened: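 Acute toxicity in a Coriell human lymphoblastoid line is scored as loss of intracellular ATP over 24 h of treatment in complete medium. CellTiter-Glo signal is fitted across concentrations with the Hill equation to give AC50.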

[8] = Cell Viability - LYMP2-020 (AID 986); conditions: activity change, negative = viability loss: at 92.2 µM (top of the series);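 further: plate controls were DMSO only for no effect and tetraoctylammonium bromide at 92 µM for full effect; nearly all actives have a fitted effect of over 55% in size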
Procedure, shortened: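 Acute cytotoxicity in a human lymphoblastoid line is scored as a concentration-dependent fall in cellular ATP after 24 hr at 37 C in complete medium. The positive control is tetraoctylammonium bromide, and potency is given as Hill-fit AC50.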

[9] = target: Estrogen receptor (Homo sapiens) (UniProt P03372); experiment: qHTS assay for small molecule agonists of estrogen receptor alpha signaling (AID 588514; calls by dose curve;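 further: 0% = vehicle only and 100% = reference agonist; nearly all actives have a fitted effect of over 70% in size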); conditions: ER-alpha-UAS-bla HEK293, beta-lactamase ratio, 18 h; activation: at 76.8 µM (top of the series), percent of full estradiol response, vehicle zero
Procedure, shortened: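 Reporter-gene assay. […] controls beta-lactamase in HEK 293 GripTite cells; after 18 hrs with compound, CCF4 substrate is added for 2 hrs and fluorescence is read.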

[10] = target: Glucocorticoid receptor (Homo sapiens) (UniProt P04150); experiment: qHTS assay for small molecule antagonists of glucocorticoid receptor signaling (AID 588533; active means well fitted inhibition curve with a large enough effect in the signal ratio, with a control signal flat, not every such curve was filed as active; inconclusive means small, poorly fitted or top-dose-only effect, or effect the other way, or a change in a side signal; the % refers to the signal ratio;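 further: cells stimulated with 2 nM dexamethasone as agonist; on the % scale 0 is the no-effect control and ±100 the full control effect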); conditions: HeLa MMTV-bla, GRE beta-lactamase ratio, antagonist mode, 18 h; activity change, negative = inhibition: at 76.8 µM (top of the series)
[11] = target: Peroxisome proliferator-activated receptor gamma (Homo sapiens) (UniProt P37231); experiment: qHTS assay for small molecule antagonists of peroxisome proliferator-activated receptor gamma signaling (AID 588537; active means well fitted inhibition curve with a large enough effect in the signal ratio, with a control signal flat, not every such curve was filed as active; inconclusive means small, poorly fitted or top-dose-only effect, or effect the other way, or a change in a side signal; the % refers to the signal ratio; further: potency means the concentration at half of the fitted maximal effect;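 on activity, negative = inhibition: reporter cells co-stimulated with 50 nM rosiglitazone agonist during compound treatment; % of control where 0% means no effect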); conditions: HEK293 PPARg-UAS-bla, beta-lactamase ratio, antagonist mode; activity, negative = inhibition: at 76.8 µM (top of the series)
Procedure, shortened: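 Step one: plate 3000 HEK293 UAS-bla cells per well in medium with 1% stripped serum and hold 6-6.5 h at 37 C. Step two: add compound and 50 nM agonist for 16 h. Step three: CCF4 loading, fluorescence read.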

[12] = target: Vitamin D3 receptor (Homo sapiens) (UniProt P11473); experiment: qHTS assay for small molecule agonists of vitamin D receptor signaling (AID 588543; calls by dose curve;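 further: 0% = DMSO basal and 100% = reference agonist control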); conditions: HEK293T VDR-UAS-bla, beta-lactamase ratio, 16 h; activation: at 76.8 µM (top of the series)
Procedure, shortened: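 qHTS in agonist mode: compound titrations stimulate a VDR-driven β-lactamase reporter in HEK293T cells over 16 h at 37 °C. Response normalized to 50 nM 1α,25-dihydroxyvitamin D3 = 100%, DMSO = 0%; Hill fitting gives EC50 and maximal response.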

[13] = qHTS assay for small molecule agonists of the antioxidant response element (ARE) signaling pathway (AID 651741; active means well fitted activation curve with a large enough effect in the signal ratio; inconclusive means small, poorly fitted or top-dose-only effect, or effect the other way, or a change in a side signal; the % refers to the signal ratio; further: potency means the concentration at half of the fitted maximal effect; on activation: % of control where 0% means no effect); conditions: HepG2 ARE-bla reporter, beta-lactamase FRET ratio, 16 h; activation: at 96 µM (top of the series) unless noted
Procedure, shortened: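 HepG2 ARE-bla cells plated at 2,000 cells/well and incubated 5 h at 37 C/5% CO2 received 23 nL compound in DMSO. After 16 h at 37 C, LiveBLAzer B/G FRET substrate was applied for 2 h at room temperature and fluorescence read.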

[14] = qHTS assay for small molecule agonists of the antioxidant response element (ARE) signaling pathway measured by Nrf2-dependant transcriptional activity (AID 720636; active means well fitted curve in the direction sought with a large enough effect in the repeat runs; inconclusive means weak or mixed curves; inactive means no such curve, though single readings can be large; an effect the other way counts as inactive or inconclusive;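 further: HepG2 cells with an ARE-driven luciferase reporter; % of control where 0% means no effect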)
Procedure, shortened: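 HepG2 ARE-luc reporter line, 1% dialyzed FBS; 6 hr attachment at 37 C, compound pinned in, 16 hr at 37 C/5% CO2; ONE-Glo, 30 min RT, luminescence read.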

[15] = Cell Viability - N2a (AID 540); conditions: N2a mouse neuroblastoma cell viability; activity change, negative = cytotoxicity: at 92.2 µM (top of the series);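 further: cells exposed to compound for 40 h at 37 °C; plate controls were DMSO alone for no effect and tamoxifen control for full effect; nearly all actives have a fitted effect of over 45% in size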
Procedure, shortened: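 First, 1500 N2a cells per well incubate 5 hr at 37 °C; next, compounds are added and incubated 40 hr at 37 °C; finally CellTiter-Glo is added and luminescence read after 20 min, with AC50 derived by Hill modeling.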

[16] = Cell Viability - LYMP2-001 (AID 921); further: potency means the concentration at half of the fitted maximal effect; nearly all actives have a fitted effect of over 70% in size
Procedure, shortened: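 qHTS, 1536-well; lymphoblastoid cells, 24 hr compound, 37 C; ATP by CellTiter-Glo, 30 min RT; luminescence; Hill-fit AC50.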

[17] = MultiTox-Fluor Cytotoxicity Assay - LYMP1-002 - Dead Cells (AID 960); conditions: LYMP1-002 lymphoblastoid cells, dead-cell protease fluorescence; cytotoxicity (dead cells): at 46.1 µM (top of the series);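 further: 0% = DMSO and 100% = tetraoctylammonium bromide; nearly all actives have a fitted effect of over 60% in size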
Procedure, shortened: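 Acute cytotoxicity in a human lymphoblastoid line is scored as rising dead-cell protease signal after 16 hr exposure at 37 C, measured fluorometrically (485/520).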

[18] = MultiTox-Fluor Cytotoxicity Assay - LYMP1-003 - Live Cells (AID 962); further: potency means the concentration at half of the fitted maximal effect
Procedure, shortened: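 Cells plated at 2500 per well and incubated 5 hr; compounds added and incubated 16 hr at 37 C; MultiTox-Fluor reagent added for 60 min at room temperature; fluorescence of liberated AFC measured at 405/510 nm.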

[19] = Cell Viability - LYMP1-003 - Assay at 40 hr (AID 964); further: nearly all actives have a fitted effect of over 60% in size; further: potency means the concentration at half of the fitted maximal effect
Procedure, shortened: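 This qHTS cytotoxicity screen treats human lymphoblastoid cells (LYMP1-003) with compounds for 40 hr and quantifies cellular ATP via luciferase luminescence.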

[20] = Cell Viability - LYMP2-004 (AID 966); further: potency means the concentration at half of the fitted maximal effect; nearly all actives have a fitted effect of over 65% in size
Procedure, shortened: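 Acute toxicity is scored as a concentration-dependent drop in intracellular ATP, quantified by luciferase luminescence, in human lymphoblastoid cells exposed to compound for 24 hr. AC50 derives from Hill-equation modelling.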

[21] = Cell Viability - LYMP2-009 (AID 968);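 further: 0% = DMSO alone and the full-kill end = tetraoctylammonium bromide at 92 µM; nearly all actives have a fitted effect of over 55% in size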
[22] = Cell Viability - LYMP2-015 (AID 971); further: potency means the concentration at half of the fitted maximal effect; nearly all actives have a fitted effect of over 55% in size
Procedure, shortened: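 Acute toxicity was scored as a concentration-dependent drop in intracellular ATP in lymphoblastoid cells after 24 hr compound exposure in complete medium. Detection used CellTiter-Glo luciferase luminescence.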

[23] = Cell Viability - LYMP2-010 (AID 981)
Procedure, shortened: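 Acute toxicity is scored as a concentration-dependent loss of cellular ATP in human lymphoblastoid cells after 24 hr compound exposure in complete medium. Tetraoctylammonium bromide is the positive control.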

[24] = Cell Viability - LYMP2-022 (AID 987)
Procedure, shortened: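 Acute toxicity in a human lymphoblastoid line is scored as decreased intracellular ATP after 24 hr compound treatment at 37 C. ATP is measured by CellTiter-Glo luminescence; curves are fitted with the Hill equation to give AC50.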

[25] = Cell Viability - LYMP1-002 - Assay at 40 hr (AID 994);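 further: 0% = DMSO only and full inhibition = 92 µM tetraoctylammonium bromide; nearly all actives have a fitted effect of over 60% in size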
Procedure, shortened: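 Viability in the human lymphoblastoid line was measured as intracellular ATP via CellTiter-Glo after 40 hr compound exposure. Tetraoctylammonium bromide served as positive control.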

[26] = target: Bile acid receptor (Homo sapiens) (UniProt Q96RI1); experiment: qHTS assay for small molecule antagonists of farnesoid X receptor signaling (AID 588526; calls by dose curve; further: potency means the concentration at half of the fitted maximal effect); conditions: HEK293T FXR-UAS-bla, beta-lactamase ratio, antagonist mode; activity change, negative = inhibition: at 76.7 µM (top of the series)
Procedure, shortened: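 Antagonist mode: titrated compounds tested against chenodeoxycholic acid stimulation (normalized to 50 uM CDCA and DMSO) in GeneBLAzer HEK293T cells for 16 h. Beta-lactamase read by CCF4 fluorescence; IC50 from Hill fits.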

[27] = target: Bile acid receptor (Homo sapiens) (UniProt Q96RI1); experiment: qHTS assay for small molecule agonists of farnesoid X receptor signaling (AID 588527; calls by dose curve;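 further: 0% = vehicle basal and 100% = reference agonist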); conditions: HEK293T FXR-UAS-bla, beta-lactamase ratio, 16 h; activation: stronger effect = higher value
Procedure, shortened: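 FXR-UAS-bla HEK293T, 10% dialyzed FBS; cpds up to 92 uM titration, 16 h 37 C; CCF4 dye 2 h RT; fluorescence. Normalized to chenodeoxycholic acid 100 uM (100%) and DMSO (0%); Hill fit gives EC50, efficacy.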

[28] = target: Retinoic acid receptor RXR-alpha (Homo sapiens) (UniProt P19793); experiment: qHTS assay for small molecule agonists of retinoid X receptor alpha signaling (AID 588544; calls by dose curve;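 further: 0% = DMSO basal wells and 100% = reference agonist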); conditions: HEK293T RXRa-UAS-bla, beta-lactamase reporter, 18 h; activation: at 76.7 µM (top of the series) unless noted
[29] = qHTS assay for small molecule disruptors of the mitochondrial membrane potential - 1 hr assay (AID 651754; calls by dose curve; further: potency means the concentration at half of the fitted maximal effect; nearly all actives have a fitted effect of over 35% in size); conditions: ratio change, negative = depolarisation: at 92.2 µM (top of the series)
Procedure, shortened: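 Steps: seed HepG2 cells and let attach overnight; pin-transfer compound or vehicle; incubate 1 hr at 37C; add Mito-MPS dye for 30 min; read two-channel fluorescence for monomer and aggregate forms.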

[30] = target: Tumor necrosis factor (Homo sapiens) (UniProt P01375); experiment: qHTS assay to identify small molecules that stimulate Tumor Necrosis Factor-alpha (TNF-alpha) secretion (AID 651757; active means well fitted curve in the direction sought with a large enough effect in the signal ratio; inconclusive means small, poorly fitted or top-dose-only effect, or a change in a side signal; inactive means no such curve, though single readings can be large or run the other way; the % refers to the signal ratio; further: 0% is about no effect); conditions: Human cells, HTRF 665/615 ratio; activation (TNF-alpha secretion): at 92.2 µM (top of the series)
Procedure, shortened: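 Secreted TNF-alpha from compound-treated THP-1 cells (17 hrs, 37 C) was quantified with a homogeneous time-resolved fluorescence antibody assay.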

[31] = target: Mitogen-activated protein kinase 10 (Mus musculus) (UniProt Q61831); experiment: JNK3 AlphaScreen Assay (AID 530; active means well fitted curve in either direction with a large enough effect, not every such curve was filed as active; inconclusive means small, poorly fitted or top-dose-only effect, or another doubt;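 further: kinase came from lysate of stimulated human HepG2 cells; signal reports phosphorylation of biotinylated GST-cJun 1-79 at Ser73 with 10 µM ATP; on the % scale 0 is the no-effect control and ±100 the full control effect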); conditions: JNK3 lysate, c-Jun phosphorylation; activity change, negative = inhibition: at 57.1 µM (top of the series)
Procedure, shortened: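 qHTS format: compounds tested as titrations against IL-1beta/TNF-alpha-activated HepG2 lysate JNK3 with biotin-GST-cJun substrate and 10 uM ATP at room temperature. Loss of anti-phospho-cJun AlphaScreen signal indicates inhibition.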

[32] = MultiTox-Fluor Cytotoxicity Assay - LYMP1-003 - Dead Cells (AID 961);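 further: 0% = DMSO and 100% = tetraoctylammonium bromide; nearly all actives have a fitted effect of over 70% in size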
Procedure, shortened: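 Human lymphoblastoid LYMP1-003 cells (2500/well) were treated with compounds for 16 hr at 37 C in complete medium. Dead-cell protease release was read by bis-AAF-R110 fluorescence (Ex/Em 485/520). AC50 came from Hill fits, normalized to DMSO and 15 uM tetraoctylammonium bromide.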

O=Nc1ccc(NO)cc1
inconclusive: activation [1] 26.5% | Potency [2] 75 µM [inhibitor, single point] | Potency [3] 75 µM [cytotoxic, single point]

BrC(Br)C(Br)Br
inconclusive: activity change, negative = inhibition [10] 11.4% | activation [13] 9.83% | activation [1] -7.85%
inactive: Potency [4] > 92 µM | Potency [5] | Potency [6] | Potency [7] | Potency [8] | Potency [9] | Potency [11] | Potency [12] | Potency [14]

Nc1ccccc1O
inactive: Potency [17] | Potency [21] | Potency [25] | activation [27] -1.93% | Potency [28]
inconclusive: Potency [4] 74.6 µM [partial curve] | activity change, negative = cytotoxicity [15] -72.3% | Potency [16] 39.8 µM [cytotoxic, partial curve, poor fit] | Potency [18] 15.8 µM [cytotoxic, partial curve] | Potency [19] 3.98 µM [cytotoxic, full curve] | Potency [20] 31.6 µM [cytotoxic, partial curve, poor fit] | Potency [6] 31.6 µM [cytotoxic, full curve, poor fit] | Potency [22] 39.8 µM [cytotoxic, partial curve, poor fit] | Potency [23] 20 µM [cytotoxic, full curve] | Potency [24] 25.1 µM [cytotoxic, partial curve, poor fit] | Potency [26] 12.6 µM [inhibitor, full curve, poor fit] | activity change, negative = inhibition [10] -22.5% | Potency [11] 28.2 µM [side channel, rising, partial curve] | activation (TNF-alpha secretion) [30] 1.73% | Potency [2] 37.6 µM [inhibitor, partial curve, poor fit]
active: Potency [13] 13.3 µM | Potency [29] 15 µM | Potency [1] 66.8 µM

CCOc1ccc2nc(N)sc2c1
inconclusive: Potency [4] 111 µM [single point] | activity, negative = inhibition [11] 1.93% | activation (TNF-alpha secretion) [30] 0.464% | activation [1] -9.73%
inactive: Potency [31] | Potency [32] | Potency [19] | Potency [28]
